# According to patent US20130102535A1, “Method for Preventing Myocardial Ischemia” (Shanghai Bajiayi Pharmaceutical Science and Technology Co. …, priority 2009, published 2013):
# System: rat myocardial ischemia models induced by coronary artery ligation
# Assay: Myocardial infarction area of rats after coronary artery ligation (N-BT staining)
# Assay type: in vivo, Sprague-Dawley male rats
# Conditions: 5 hours after coronary artery ligation, x ± SD
# Source text: Sprague-Dawley male rats of clean grade weighting 200-220 g were supplied by the animal experimental center of the Second Military Medical University (license number: SCXK (Shanghai)-2007-0003). • 2.1.2 Experimental groups
# Experimental rats were randomly divided into four groups: sham group: n=8, model group: n=9, MLIF low-dose group: n=11, MLIF high-dose group: n=12. The dose of medicine could be administrated according to rat body weight. MLIF low-dose group and MLIF high-dose group were administrated by tail intravenous injection prepared with normal saline as solvent at the dose of 0.15 mg/kg and 0.5 mg/kg, respectively. • 2.1.3 Coronary artery ligation and measurement of myocardial infarction area of rats
# The Sprague-Dawley male rats were abdomen anesthetized with 25% urethane (0.4 ml/100 g) and fixated at supine position. The chest was cut open among the fifth rib at left, and then the fourth and fifth ribs were cut off along the left side of sterna at 2 mm. The pericardium was snipped off with heart exposed, and a 0/3 suture line was passed through the left anterior descending coronary artery. The rats were administrated by tail intravenous injection slowly. After 10 minutes, the left anterior descending coronary artery was ligated rapidly and the heart was returned to its chest, removing the air within the thorax by hand, closing the thorax and tightening the purse-string suture rapidly. The entire process of opening and closing chest was performed within 30 seconds. The coronary arteries of rats of sham group were not ligated since the myocardial ischemia would be caused by coronary artery ligation.
# The rats were administrated by tail intravenous injection with the dose of 0.15 mg/kg (MLIF low-dose group) and 0.5 mg/kg (MLIF high-dose group) at 15 minutes after coronary artery ligation with the same volume of normal saline administrated in sham group and model group. Each group of animals was executed at 5 hours after coronary artery ligation. The heart was taken out and the heart ventricle muscle was transversely chipped into 5 slices, the cut position of which was parallel to coronary sulcus under the coronary artery ligation line. The five slices of the heart ventricle muscle were stained with Nitroblue tetrazolium (N-BT) for 15 minutes with shaking. […] The area of myocardial infarction was isolated by a dissecting microscope and the whole heart weight, the left ventricle weight and the area of myocardial infarction weight were weighed, respectively, the percent (%) of area of myocardial infarction weight to whole heart weight were quantified as an measure on myocardial infarction area ranges. • 2.1.4 Data and statistics analysis
# All experimental data are given as x±SD. Differences between the groups were calculated by analysis of variance (SPSS 10.0).
# [1] = MLIF high-dose group 0.5 mg/kg tail i.v.
# [2] = MLIF low-dose group 0.15 mg/kg tail i.v.
substance,measurement,setting,value
Met-Gln-Cys-Asn-Ser (MQCNS) [MLIF],left ventricle weight,[1],526 ± 31.5 mg
same,whole heart weight,[1],779 ± 51.2 mg
same,left ventricle weight,[2],566 ± 48.1 mg
same,whole heart weight,[2],832 ± 63.5 mg
